Reference: PubChem BioAssay AID652259 (Drosophila RNAi Screening Center, 2013)

- Screen: 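Identify new Wingless signalling regulators in fly cells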 (primary screen)
- System: Drosophila clone 8 imaginal disc epithelial cells
- Knock-down reagent: long dsRNA against Drosophila genes
- Conditions: pathway stimulated by co-transfected Wingless expression plasmid
- Measured: 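Dual luciferase reads per well after Wingless plasmid stimulation: reporter firefly light and Renilla control light; activity is firefly divided by Renilla, a ratio not deposited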
- Reading the numbers: firefly reporter light: higher = more Wg reporter light, before normalisation; Renilla control light: higher = more transfected or surviving cells
- Rule for the call: 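Strong candidates differ from their plate mean by at least two out of four per-plate statistical tests; weak candidates meet just one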
- Calls: active = candidate regulator (raises or lowers reporter); inactive = not a candidate
The deposit covers about 22,000 reagents; below is an unselected part of those with a known target gene and a result. Over the whole deposit, 233 (1.1%) were called active. 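Light values are raw, unnormalised plate reads; the ratio scores behind the reporter calls were not deposited.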 A number with no mark means an inactive call. Reagents against one gene are numbered here. A plus sign joins genes that one reagent is predicted to hit. Not given: the amount of reagent, the time to read-out, the dose of the treatment.

target gene | dsRNA no. | reporter change call, replicate 1 | firefly reporter light, replicate 1 | firefly reporter light, replicate 2 | Renilla control light, replicate 1 | Renilla control light, replicate 2
sim | 1 | – | 10481 | – | 3441 | –
PAPLA1 | 1 | – | 11053 | – | 4172 | –
PAPLA1 | 2 | – | 1937 | 5633 | 837 | 2292
CG45067 | 1 | – | 6186 | – | 2716 | –
Osi11 | 1 | – | 8540 | – | 1540 | –
Vps36 | 1 | – | 6242 | – | 1971 | –
mamo | 1 | – | 1993 | – | 210 | –
mamo | 2 | – | 17574 | – | 10409 | –
mamo | 3 | – | 21382 | – | 9508 | –
mamo | 4 | – | 24406 | – | 14101 | –
mamo | 5 | – | 24736 | – | 12183 | –
crp | 1 | – | 2706 | 4277 | 866 | 1449
Gbeta5 | 1 | – | 11574 | – | 7146 | –
POSH | 1 | – | 9776 | – | 3161 | –
CG30334 | 1 | – | 19243 | – | 16083 | –
CG4239 | 1 | – | 2908 | 8489 | 787 | 2016
CG43155 | 1 | – | 23538 | – | 12403 | –
CG43155 | 2 | – | 22264 | – | 9680 | –
CG8132 | 1 | – | 21536 | – | 6470 | –
Pex16 | 1 | – | 4165 | – | 1696 | –
CG10984 | 1 | – | 3783 | – | 2903 | –
Pkn + Tsen15 | 1 | – | 1.03e6 | 8.37e5 | 4.96e5 | 136
SelR | 1 | – | 19168 | – | 4795 | –
E(spl)m6-BFM | 1 | – | 20657 | – | 18096 | –
Acadvl | 1 | – | 23488 | – | 6544 | –
CG10737 | 1 | – | 11413 | – | 3562 | –
CG3857 | 1 | – | 2680 | 6458 | 1072 | 2712
mor | 1 | – | 23881 | – | 3239 | –
CG34126 | 1 | – | 2683 | 8308 | 803 | 2352
CG34126 | 2 | – | 5.38e5 | 6.45e5 | 1.57e5 | 2.08e5
CG32106 | 1 | – | 2727 | – | 1178 | –
CG1941 | 1 | – | 3212 | 9483 | 869 | 3771
Cap-G | 1 | Wg reporter activity raised | 9194 | – | 2248 | –
Cap-G | 2 | – | 4471 | – | 1557 | –
Cap-G | 3 | – | 5.29e5 | 4.60e5 | 2.37e5 | 1.34e5
Fatp (retired record) | 1 | – | 8199 | – | 2106 | –
Ip6k | 1 | – | 8204 | – | 1964 | –
niki | 1 | – | 17424 | – | 13274 | –
wash | 1 | – | 8312 | – | 2188 | –
CG31388 | 1 | – | 10232 | – | 3276 | –
CG7218 | 1 | – | 2133 | 5203 | 1096 | 1779

6 entries from above, reformatted:
{"target gene": "Cap-G", "dsRNA no.": 2, "firefly reporter light, replicate 1": 4471, "Renilla control light, replicate 1": 1557}
{"target gene": "Cap-G", "dsRNA no.": 3, "firefly reporter light, replicate 1": 5.29e5, "firefly reporter light, replicate 2": 4.60e5, "Renilla control light, replicate 1": 2.37e5, "Renilla control light, replicate 2": 1.34e5}
{"target gene": "Fatp (retired record)", "dsRNA no.": 1, "firefly reporter light, replicate 1": 8199, "Renilla control light, replicate 1": 2106}
{"target gene": "Ip6k", "dsRNA no.": 1, "firefly reporter light, replicate 1": 8204, "Renilla control light, replicate 1": 1964}
{"target gene": "niki", "dsRNA no.": 1, "firefly reporter light, replicate 1": 17424, "Renilla control light, replicate 1": 13274}
{"target gene": "wash", "dsRNA no.": 1, "firefly reporter light, replicate 1": 8312, "Renilla control light, replicate 1": 2188}

Continued.
target gene | dsRNA no. | reporter change call, replicate 1 | firefly reporter light, replicate 1 | firefly reporter light, replicate 2 | Renilla control light, replicate 1 | Renilla control light, replicate 2
CG10553 | 1 | – | 19984 | – | 26547 | –
CG32687 | 1 | – | 17670 | – | 10128 | –
CG32687 | 2 | – | 17453 | – | 8771 | –
MESR3 | 1 | – | 1913 | 4440 | 357 | 2486
CG34461 | 1 | – | 1724 | 7731 | 1560 | 3977
CG43117 | 1 | – | 3024 | – | 1019 | –
Pino | 1 | – | 24832 | – | 4466 | –
Pino | 2 | – | 14518 | – | 5251 | –
PpD5 | 1 | – | 3037 | 6823 | 956 | 3440
RPA3 | 1 | – | 19772 | – | 9802 | –
CG43317 | 1 | – | 10659 | – | 3264 | –
cid | 1 | – | 15533 | – | 12916 | –
cid | 2 | – | 6880 | – | 2999 | –
IA-2 | 1 | – | 3963 | 14075 | 1243 | 6059
IA-2 | 2 | – | 12328 | – | 4984 | –
Klp68D | 1 | – | 2961 | – | 1096 | –
CG30393 | 1 | – | 2512 | 5792 | 615 | 2968
GstT1 | 1 | – | 2698 | 8883 | 1136 | 3524
Mdh1 | 1 | – | 3284 | 6009 | 1590 | 3173
gry | 1 | – | 4424 | – | 1989 | –
gry | 2 | – | 6311 | – | 3016 | –
CG1894 | 1 | – | 9058 | – | 2960 | –
CG4465 | 1 | – | 20050 | – | 4793 | –
Lcp65Ae | 1 | – | 888 | 6301 | 833 | 2900
CG7135 | 1 | – | 15114 | – | 10093 | –
Hsp70Aa + Hsp70Bb + Hsp70Ba + 3 more | 1 | – | 24560 | – | 6713 | –
Golgin84 | 1 | – | 12647 | – | 11344 | –
CG14689 | 1 | – | 12000 | – | 3400 | –
Mcad | 1 | – | 5204 | – | 2151 | –
CG5815 | 1 | – | 10468 | – | 3642 | –
Nct | 1 | – | 2528 | 6763 | 1062 | 2244
TotE | 1 | – | 4.38e5 | 4.33e5 | 1.54e5 | 1.37e5
CG10321 | 1 | – | 4140 | – | 438 | –
CG5493 + CG5327 | 1 | – | 10064 | – | 3011 | –
Rh2 | 1 | – | 13701 | – | 2540 | –
hpRNA:CR18854 + IP3K1 | 1 | – | 5046 | – | 2994 | –
aspr | 1 | – | 11380 | – | 8428 | –
aspr | 2 | – | 16374 | – | 9485 | –
INPP5E | 1 | – | 5088 | – | 1699 | –
hpRNA:CR32207 | 1 | – | 3365 | – | 1579 | –
CG33262 | 1 | – | 4.83e5 | 5.88e5 | 2.08e5 | 1.98e5
Cln7 | 1 | – | 6761 | – | 2256 | –
CG14006 | 1 | – | 1706 | 5428 | 816 | 2483
Arl6 | 1 | – | 9096 | – | 3104 | –
Ipk2 | 1 | – | 3072 | 7413 | 1266 | 3261
OdsH | 1 | – | 27014 | – | 12745 | –
CG34034 | 1 | – | 4061 | – | 2033 | –
Khc-73 | 1 | – | 16032 | – | 4265 | –
rpr | 1 | – | 6871 | – | 3232 | –
CG5888 | 1 | – | 3786 | – | 1431 | –
VAChT + ChAT | 1 | – | 2986 | – | 1712 | –
lncRNA:CR32657 | 1 | – | 15613 | – | 8937 | –
